In PubChem BioAssay AID540275 (National Center for Advancing Translational Sciences (NCATS), 2011):
In all, about 320,000 compounds went through this assay and about 620 (0.19%) were called active. Inconclusive means that the source gave no clear call. Such entries were picked first, then a sample of the others. Cut-off read from the data, not from the text of the source: active = activation above about 80%; inconclusive = between about 30% and that limit; inactive = weaker than that.

By UniProt entry, the sequences of proteins in these tests, tags left out.
UniProt Q8NER1, whole entry, looked up: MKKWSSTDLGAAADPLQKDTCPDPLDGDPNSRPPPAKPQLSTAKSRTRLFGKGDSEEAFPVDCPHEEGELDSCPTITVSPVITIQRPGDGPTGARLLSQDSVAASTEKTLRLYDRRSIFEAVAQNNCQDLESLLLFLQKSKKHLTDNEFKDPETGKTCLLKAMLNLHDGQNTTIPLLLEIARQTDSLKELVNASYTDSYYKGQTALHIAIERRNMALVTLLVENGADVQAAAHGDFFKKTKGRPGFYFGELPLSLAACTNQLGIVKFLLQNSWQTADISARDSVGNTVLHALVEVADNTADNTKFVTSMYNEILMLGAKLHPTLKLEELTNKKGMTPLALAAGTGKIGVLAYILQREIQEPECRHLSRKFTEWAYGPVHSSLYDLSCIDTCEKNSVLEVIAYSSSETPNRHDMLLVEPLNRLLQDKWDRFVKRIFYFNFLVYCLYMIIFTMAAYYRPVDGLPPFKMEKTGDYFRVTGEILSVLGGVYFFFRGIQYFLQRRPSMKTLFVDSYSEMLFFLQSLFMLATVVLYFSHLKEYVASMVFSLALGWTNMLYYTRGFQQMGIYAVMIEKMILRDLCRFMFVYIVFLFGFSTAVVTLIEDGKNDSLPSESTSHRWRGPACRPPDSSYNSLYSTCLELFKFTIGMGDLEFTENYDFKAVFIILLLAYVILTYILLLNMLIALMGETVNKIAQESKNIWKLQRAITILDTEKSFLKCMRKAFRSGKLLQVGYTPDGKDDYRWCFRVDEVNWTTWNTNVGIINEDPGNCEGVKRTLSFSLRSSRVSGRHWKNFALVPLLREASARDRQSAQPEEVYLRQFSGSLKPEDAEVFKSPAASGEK

Molecular target: Transient receptor potential cation channel subfamily V member 1 (Homo sapiens) (UniProt Q8NER1)
Assay: HTS Assay for Compounds that Act as Agonists of the Vanilloid Receptor 1; note: 0% is about no effect
Conditions: TRPV1-expressing cells, Fluo-8 calcium influx, agonist mode; at 8.33 µM, active compounds read high
In short: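 TRPV1-expressing cells were cultured overnight at 35.5C and loaded with Fluo-8 calcium dye for 40 to 90 min at room temperature. After a 10 s baseline, compound was added and calcium influx was read kinetically for 3 min (ex 480/em 520 nm).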

| Structure (SMILES) | activation |
| --- | --- |
| O=C(CSCc1ccccc1Br)N/N=C/c1ccc2c(c1)OCO2 | inconclusive: 35.7% |
| Cc1cccc(OCCCn2c(=O)sc3ccccc32)c1 | inconclusive: 38.1% |
| O=C(OCc1cn(-c2ccc(Cl)c(Cl)c2)nn1)c1ccccc1 | inconclusive: 30.2% |
| Cc1ccc(/C=C/S(=O)(=O)NCc2ccc(F)cc2)cc1 | inconclusive: 32.8% |
| N#Cc1c(C(F)(F)F)cc(-c2ccc(Cl)cc2)[nH]c1=O | inactive: 2.89% |
| COc1ccc(C(=O)Nc2ccc(N3CCCC3)cc2)cc1 | inconclusive: 43.8% |
| O=C(O)/C(=N/NC(=O)c1ccc(Cl)cc1)c1ccccc1 | inconclusive: 36.3% |
| CC(C)(C)Nc1nc(SCc2ccccc2)nc(N2CCOCC2)n1 | inconclusive: 31% |
| COc1cccc(OCc2cc(C3Nc4ccccc4C(=O)N3Cc3ccco3)ccc2OC)c1 (stereo unspecified) | inactive: 0.911% |
| Cc1cccc(C)c1N1CCN(C(=O)c2ccc3c(c2)OCO3)CC1 | inconclusive: 33.2% |
| COc1ccc(-c2noc(N3CCC(C(=O)Nc4ccc(OC)cc4OC)CC3)n2)cc1 | inconclusive: 60.5% |
| O=C(Cc1ccccc1)NC(=S)Nc1ccc(OC(F)F)cc1 | inconclusive: 58.7% |
| CCN(CC(=O)NCc1cccs1)S(=O)(=O)c1cccc(Br)c1 | inactive: 13.6% |
| CCCCCC1CCC(C(=O)N2CCOCC2)CC1 (stereo unspecified) | active: 93.8% |
| Cc1occc1C(=O)Nc1ccc2ccccc2c1 | inconclusive: 53.2% |
| CCOc1ccccc1C(=O)NC(C(=O)Nc1ccccc1N1CCOCC1)C(C)C (stereo unspecified) | inconclusive: 66.5% |
| CCOC(=O)C1(CCCc2ccccc2)CCN(C(=O)Cc2nonc2C)CC1 | inconclusive: 40.4% |
| CCCCC1(Cc2ccc([N+](=O)[O-])cc2)C(=O)N(c2ccccc2)N(c2ccccc2)C1=O | inactive: 24.6% |
| CCc1ccc(S(=O)(=O)Nc2cccc(C3OCCCO3)c2)cc1 | inactive: 4.6% |
| Cc1c(Cl)cccc1NC(=O)c1cc(-c2ccccc2O)n[nH]1 | inactive: 0.0355% |
| CCCC(C)C(=O)Nc1ccc(Cl)cn1 (stereo unspecified) | inactive: 2.64% |
| CCOC(=O)C1CCCN(C2=NC(=O)/C(=C/c3ccc(N(C)C)cc3)S2)C1 (stereo unspecified) | inactive: 11.2% |
| CC(C)N(C(=O)CS(=O)(=O)c1ccc(Cl)c(Cl)c1)C(C)C | inconclusive: 49.3% |
| Clc1ccc(-c2nnc(-c3cccc4ccccc34)o2)cc1Cl | inactive: 1.61% |
| COc1ccccc1NC(=O)Nc1ccc(F)c(F)c1 | inconclusive: 33.1% |
| CCOC(=O)c1c(NC(=O)CSc2nc3cc(Cl)ccc3c(=O)n2Cc2ccco2)sc(C(=O)N(C)C)c1C | inactive: -0.103% |

Three structures from above, ordered by formula weight, largest number first.

| Structure (SMILES) | activation |
| --- | --- |
| O=C(CSCc1ccccc1Br)N/N=C/c1ccc2c(c1)OCO2 | inconclusive: 35.7% |
| Cc1cccc(C)c1N1CCN(C(=O)c2ccc3c(c2)OCO3)CC1 | inconclusive: 33.2% |
| Cc1cccc(OCCCn2c(=O)sc3ccccc32)c1 | inconclusive: 38.1% |
